The test concerns the target Clu-Δ(214–238) (tail mutant TL1) (human) (UniProt P10909). Nature of the test: SEC; 10 μM Clu in 20 mM Na-acetate pH 5.0, 100 mM NaCl, 1 mM EDTA, overnight or longer on ice; Superdex-200 Increase 3.2/300 at room temperature; both purified. On the technique in general: In gel filtration, larger molecules generally elute earlier.

Chains of the proteins cited; added tags and fusions are not shown. Lines headed by an entry give the natural chain unless they say otherwise; changes in a name come on top. A line that says so, or that is headed by a name, gives the form on record, which may keep a tag or linker.
Clu-Δ(214–238) (tail mutant TL1) (P10909, form named): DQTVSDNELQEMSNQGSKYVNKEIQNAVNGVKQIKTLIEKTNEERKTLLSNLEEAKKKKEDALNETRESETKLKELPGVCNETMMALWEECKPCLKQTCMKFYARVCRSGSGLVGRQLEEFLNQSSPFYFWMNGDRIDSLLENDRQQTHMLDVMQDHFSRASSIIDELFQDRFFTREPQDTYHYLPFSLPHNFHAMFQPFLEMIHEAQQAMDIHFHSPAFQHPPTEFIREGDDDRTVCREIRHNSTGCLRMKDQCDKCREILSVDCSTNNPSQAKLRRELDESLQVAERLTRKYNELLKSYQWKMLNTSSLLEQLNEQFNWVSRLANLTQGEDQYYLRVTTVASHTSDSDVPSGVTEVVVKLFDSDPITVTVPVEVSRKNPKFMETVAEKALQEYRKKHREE

No constants are given. Whether binding was seen depends on the method and setting.

These results are taken from article PMC12527946.

“Clu-Δ(214–238) (tail mutant TL1) (from UniProt P10909 23-449)”: the binding result is “no binding (condition: at pH 5.0 (10 μM))”.
